Experimental data reported in publication PMC6896172, “Successful Targeting of the Warburg Effect in Prostate Cancer by Glucose-Conjugated 1,4-Naphthoquinones” (Cancers, 2019).
Further values from the same series stand in other lists.

System: 22Rv1 cells
Assay: Global proteome analysis (LC-MS/MS, DIA) of differentially expressed proteins
Assay type: cell-based, human
Procedure: 22Rv1 cells were seeded in T75 culture bottles (4 × 10^6 cells/bottle in 20 mL/bottle), treated for 48 h with the 5 µM of compound 11 or vehicle (DMSO), harvested by scratching, washed twice with ice-cold PBS and flash-frozen. Cells were lysed and sonicated. The protein extracts were then heat-denaturated, reduced, alkylated and digested by trypsin. Peptides were chromatographically separated using full recovery autosampler vials and a nano-UPLC system (Acquity, Waters Corporation, Milford, MS, USA), coupled via electrospray ionization (ESI) to a tandem mass spectrometer equipped with a quadrupole and an orbitrap (QExactive, Thermo Fisher Scientific, Bremen, Germany), using MS/MS mode in data dependent acquisition (DDA) and data independent acquisition (DIA). The peptides, analyzed with DDA-LC-MS/MS, were identified with the search engine Sequest, integrated in the Proteome Discoverer software version 2.0 (Thermo Fischer Scientific) using the human Uniprot protein database (EMBL; Hinxton Cambridge, UK, release December 2018). […] For the details of sample preparation and proceeding, data acquisition and analysis see the Supplementary information. […]
serum (FBS, Invitrogen) and 1% penicillin/streptomycin (Invitrogen)). […]
Cell lines were lysed in 100 mM triethylammonium bicarbonate and 1% w/v sodium deoxycholate buffer followed by probe sonication to destroy polynucleotides and heat induce protein denaturing at 99 °C for 5 min. Protein concentrations were estimated with a bicinchonic acid (BCA) protein assay (Thermo Fisher Scientific, Bremen, Germany). 20 µg of protein were reduced in presence of 10 mM dithiotreithol (Sigma Aldrich) for 30 min at 60 °C followed by cysteine alkylation with 20 mM iodo acetamide (Sigma Aldrich) for 30 min at 37 °C in the dark and enzymatic degradation with sequencing grade trypsin (Promega) over night at 37 °C. Digestion was quenched with 1% formic acid (FA), precipitated sodium deoxycholate removed by centrifugation for 5 min at 14,000 g and the supernatant was dried in a vacuum centrifuge.
LC-MS/MS in Data Dependent and Data Independent Mode
Samples were resuspended in 0.1% FA and transferred into a full recovery autosampler vial (Waters). Chromatographic separation was achieved on a nano -UPLC system (Acquity, Waters Corporation, Milford, MS, USA) with a two-buffer-system (buffer A: 0.1% FA in water, buffer B:
0.1% FA in Acetonitrile (ACN), both at pH = 3). Attached to the UPLC was a reversed -phase peptide trapping column (Symmetry C18, 180 µm × 20 mm, 100 Å pore size, 5 µm particle size) for desalting, followed by a reversed-phase capillary separation of the tryptic peptides (BEH C18; 75 µm × 200 mm, 130 Å pore size, 1.7 µm particle size), using a 60 min gradient with increasing ACN concentration from 2–30% ACN. The eluting peptides were analyzed on a quadrupole-orbitrap mass spectrometer (QExactive, Thermo Fisher Scientific, Bremen, Germany) in data dependent acquisition (DDA) and data independent acquisition (DIA) for quantification.
In DDA mode, one replicate of each cell line was randomly chosen and 1 µg per sample was used per LC-MS/MS run to build a reference spectral library used for data extraction of samples acquired in DIA mode. For DDA, the 12 most intense ions per precursor scan (1 × 10 6 ions, 70,000 Resolution, 120 ms fill time) were analyzed by MS/MS (HCD at 25 normalized collision energy, 1 × 105 ions, 17,500 Resolution, 50 ms fill time) in a range of 400–1300 m/z. A dynamic precursor exclusion of 20 s was used. For DIA, 1 µg of each sample was analyzed using a 30 sequential 20 Da fixed window method covering the mass range from 400 –1000 m/z. Per cycle, 2 precursor scans (1 × […]
28 normalized collision energy, 1 × 106 ions, 17,500 Resolution, 50 ms fill time) were performed.
After the first precursor scan, 15 MS/MS scans were performed covering the precursor mass range from 400–700 m/z followed by the second precursor scan and another 15 MS/MS scans ranging from […]
LC-MS/MS Data Processing and Analysis […]

CC1(C)OC2OC(C(O)COC3=CC(=O)c4cccc(O)c4C3=O)C(O)C2O1 (stereo not drawn) [Compound 11]
Fold change (treated / control) (TOM34_HUMAN Q15785): 0.4323 | Fold change (treated / control) (TOP2A_HUMAN P11388): 0.2459 | Fold change (treated / control) (TOP2B_HUMAN Q02880): 0.7139 | Fold change (treated / control) (TPM3_HUMAN P06753): 1.217 | Fold change (treated / control) (TPM4_HUMAN P67936): 1.728 | Fold change (treated / control) (TPP2_HUMAN P29144): 1.469 | Fold change (treated / control) (TR112_HUMAN Q9UI30): 0.7955 | Fold change (treated / control) (TRA2A_HUMAN Q13595): 1.534 | Fold change (treated / control) (TRAP1_HUMAN Q12931): 0.8199 | Fold change (treated / control) (TRXR1_HUMAN Q16881): 3.369 | Fold change (treated / control) (TTL12_HUMAN Q14166): 1.248 | Fold change (treated / control) (TXND5_HUMAN Q8NBS9): 1.151 | Fold change (treated / control) (UB2L3_HUMAN P68036): 1.556 | Fold change (treated / control) (UBA3_HUMAN Q8TBC4): 1.35 | Fold change (treated / control) (UBA6_HUMAN A0AVT1): 2.181 | Fold change (treated / control) (UBE2K_HUMAN P61086): 1.33 | Fold change (treated / control) (UBE2T_HUMAN Q9NPD8): 0.4008 | Fold change (treated / control) (UBF1_HUMAN P17480): 0.7121 | Fold change (treated / control) (UCHL3_HUMAN P15374): 1.311 | Fold change (treated / control) (UCRI_HUMAN P47985): 0.5774 | Fold change (treated / control) (UGDH_HUMAN O60701): 2.13 | Fold change (treated / control) (UTP18_HUMAN Q9Y5J1): 0.63 | Fold change (treated / control) (VA0D1_HUMAN P61421): 1.1191 | Fold change (treated / control) (VAT1_HUMAN Q99536): 1.327 | Fold change (treated / control) (VATA_HUMAN P38606): 1.217 | Fold change (treated / control) (VATB2_HUMAN P21281): 1.249 | Fold change (treated / control) (VATE1_HUMAN P36543): 1.327 | Fold change (treated / control) (VATH_HUMAN Q9UI12): 1.255 | Fold change (treated / control) (VDAC2_HUMAN P45880): 1.2774 | Fold change (treated / control) (VGF_HUMAN O15240): 0.5125 | Fold change (treated / control) (VIGLN_HUMAN Q00341): 0.6343 | Fold change (treated / control) (VPS28_HUMAN Q9UK41): 1.5088 | Fold change (treated / control) (VTA1_HUMAN Q9NP79): 1.405 | Fold change (treated / control) (VTNC_HUMAN P04004): 3.078 | Fold change (treated / control) (WDR36_HUMAN Q8NI36): 0.8098 | Fold change (treated / control) (ZBT10_HUMAN Q96DT7): 0.5298 | Fold change (treated / control) (ZC11A_HUMAN O75152): 0.7642 | Fold change (treated / control) (ZN428_HUMAN Q96B54): 0.5792 | Fold change (treated / control) (ZYX_HUMAN Q15942): 2.4 | Fold change (treated / control) (protein ABCE1_HUMAN (P61221)): 0.5106 | Fold change (treated / control) (protein ABHDB_HUMAN (Q8NFV4)): 0.847 | Fold change (treated / control) (protein ACON_HUMAN (Q99798)): 0.6906 | Fold change (treated / control) (protein ADIRF_HUMAN (Q15847)): 0.7019 | Fold change (treated / control) (protein ADPPT_HUMAN (Q9NRN7)): 0.7187 | Fold change (treated / control) (protein ADT2_HUMAN (P05141)): 0.7729 | Fold change (treated / control) (protein AL1B1_HUMAN (P30837)): 0.713 | Fold change (treated / control) (protein AL4A1_HUMAN (P30038)): 0.7522 | Fold change (treated / control) (protein ANM1_HUMAN (Q99873)): 0.7068 | Fold change (treated / control) (protein AOFA_HUMAN (P21397)): 0.8558 | Fold change (treated / control) (protein AT5F1_HUMAN (P24539)): 0.4995 | Fold change (treated / control) (protein ATAD2_HUMAN (Q6PL18)): 0.5339 | Fold change (treated / control) (protein ATPA_HUMAN (P25705)): 0.8586 | Fold change (treated / control) (protein BAP31_HUMAN (P51572)): 0.7682 | Fold change (treated / control) (protein BZW2_HUMAN (Q9Y6E2)): 0.8405 | Fold change (treated / control) (protein C10_HUMAN (Q99622)): 0.6968 | Fold change (treated / control) (protein CAB45_HUMAN (Q9BRK5)): 0.5255 | Fold change (treated / control) (protein CADH1_HUMAN (P12830)): 0.7645 | Fold change (treated / control) (protein CBX3_HUMAN (Q13185)): 0.7648 | Fold change (treated / control) (protein CD44_HUMAN (P16070)): 0.8349 | Fold change (treated / control) (protein CD63_HUMAN (P08962)): 0.6871 | Fold change (treated / control) (protein CD166_HUMAN (Q13740)): 0.8191 | Fold change (treated / control) (protein CDK1_HUMAN (P06493)): 0.6978 | Fold change (treated / control) (protein CENPV_HUMAN (Q7Z7K6)): 0.8235 | Fold change (treated / control) (protein CGBP1_HUMAN (Q9UFW8)): 0.5472 | Fold change (treated / control) (protein CHPT1_HUMAN (Q8WUD6)): 0.4101 | Fold change (treated / control) (protein CHTOP_HUMAN (Q9Y3Y2)): 0.4309 | Fold change (treated / control) (protein CLCB_HUMAN (P09497)): 0.4273 | Fold change (treated / control) (protein CLPT1_HUMAN (O96005)): 0.5334 | Fold change (treated / control) (protein COA7_HUMAN (Q96BR5)): 0.6927 | Fold change (treated / control) (protein COX2_HUMAN (P00403)): 0.7931 | Fold change (treated / control) (protein COX17_HUMAN (Q14061)): 0.3991 | Fold change (treated / control) (protein COX41_HUMAN (P13073)): 0.7293 | Fold change (treated / control) (protein CPIN1_HUMAN (Q6FI81)): 0.457 | Fold change (treated / control) (protein CREL2_HUMAN (Q6UXH1)): 0.7362 | Fold change (treated / control) (protein CSDE1_HUMAN (O75534)): 0.3966 | Fold change (treated / control) (protein CTNB1_HUMAN (P35222)): 0.7244 | Fold change (treated / control) (protein CYB5_HUMAN (P00167)): 0.6962 | Fold change (treated / control) (protein CYTC_HUMAN (P01034)): 0.3985 | Fold change (treated / control) (protein DCAKD_HUMAN (Q8WVC6)): 0.4938 | Fold change (treated / control) (protein DCXR_HUMAN (Q7Z4W1)): 0.7586 | Fold change (treated / control) (protein DDB1_HUMAN (Q16531)): 0.7393 | Fold change (treated / control) (protein DDX5_HUMAN (P17844)): 0.5576 | Fold change (treated / control) (protein DDX27_HUMAN (Q96GQ7)): 0.7632 | Fold change (treated / control) (protein DDX54_HUMAN (Q8TDD1)): 0.4463 | Fold change (treated / control) (protein DDX56_HUMAN (Q9NY93)): 0.5433 | Fold change (treated / control) (protein DECR2_HUMAN (Q9NUI1)): 0.8098 | Fold change (treated / control) (protein DEK_HUMAN (P35659)): 0.84 | Fold change (treated / control) (protein DHX9_HUMAN (Q08211)): 0.8179 | Fold change (treated / control) (protein DIDO1_HUMAN (Q9BTC0)): 0.5009 | Fold change (treated / control) (protein DNJC7_HUMAN (Q99615)): 0.6825 | Fold change (treated / control) (protein DNLI1_HUMAN (P18858)): 0.4962 | Fold change (treated / control) (protein DNLI3_HUMAN (P49916)): 0.775 | Fold change (treated / control) (protein DNMT1_HUMAN (P26358)): 0.5164 | Fold change (treated / control) (protein DPM1_HUMAN (O60762)): 0.7251 | Fold change (treated / control) (protein DRS7B_HUMAN (Q6IAN0)): 0.7083 | Fold change (treated / control) (protein DSG2_HUMAN (Q14126)): 0.809 | Fold change (treated / control) (protein DSRAD_HUMAN (P55265)): 0.7783 | Fold change (treated / control) (protein DUT_HUMAN (P33316)): 0.4993 | Fold change (treated / control) (protein DX39B_HUMAN (Q13838)): 0.8243 | Fold change (treated / control) (protein EDN3_HUMAN (P14138)): 0.08248 | Fold change (treated / control) (protein EMC2_HUMAN (Q15006)): 0.823 | Fold change (treated / control) (protein ERO1A_HUMAN (Q96HE7)): 0.6751
